Among the data in patent US20170342169A1 are binding values, retold here.

The assay has as its target cynomolgus 4-1BB (cynomolgus). The experiment in a line: SPR.

These are yes or no findings as the source states them, for the method shown. A result given as binding can be weak or reduced; the word gives no strength.

B1: TABBY106-rIgG1 (antibody, V domains shown)
VH: QVQLQQSGAELAKPGTSVKLSCKASGYTFTSYYIYWVKQRPGQGLEWIGNIWPGNGGTFYGEKFMGKATFTADTSSSTAYMLLGSLTPEDSAYYFCARRPDYSGDDYFDYWGQGVLVTVSS
VL: QVVLTQPKSVSTSLKSTVKLSCKLNSGNIGSYYVHWYQQHAGRSPTTMIYRDDKRPDGVPDRFSGSIDSSSNSAFLTINNVQTEDDAIYFCHSYDSTITPVFGGGTKLTVL
With B1, the binding result is reported as “binds”.

B2: TABBY107-rIgG1 (antibody, V domains shown)
VH: QVKLVQSGAALVKPGASVKMSCKASDYTFNDYWVSWVKQRHGESLEWIGEIYPNSGATNFNGKFRGKATLTVDNPTSTAYMELSRLTSEDSAIYYCTREYTRDWFAYWGQGTLVTVSS
VL: DVVLTQTPSILSATIGQSVSISCRSSQSLLDSDGNTYLYWFLQRPGQSPQRLIYLVSNLGSGVPNRFSGSGSGTDFTLKISGVEAEDLGIYYCMQPTHAPYTFGAGTKLELK
Turning to B2, the binding entry is reported as “binds”.
